From patent publication US20240027467A1

Legend:
[1] = biological target: BMH1 (Saccharomyces cerevisiae;Aequorea victoria); test: pull-down from yeast cell lysate on magnetic beads coupled with trapper CA15816, anti-GFP western blot of the beads
[2] = biological target: SSA1 (Saccharomyces cerevisiae;Aequorea victoria); test: as above
[3] = biological target: ALD6 (Saccharomyces cerevisiae;Aequorea victoria); test: as above
[4] = biological target: FBA1 (Saccharomyces cerevisiae;Aequorea victoria); test: as above
[5] = biological target: PGI1 (Saccharomyces cerevisiae;Aequorea victoria); test: as above
[6] = biological target: BMH1 (Saccharomyces cerevisiae;Aequorea victoria); test: NANEX elution from CA15816 magnetic beads with 40 ul stripper Nb CA12760 at 0.5 mg/ml, anti-GFP western blot of the eluate
[7] = biological target: SSA1 (Saccharomyces cerevisiae;Aequorea victoria); test: as above
[8] = biological target: PGI1 (Saccharomyces cerevisiae;Aequorea victoria); test: as above

binding [1]	binding [2]	binding [3]	binding [4]	binding [5]	binding [6]	binding [7]	binding [8]	Binder
binds	binds	binds	binds	binds	–	–	–	CA15816 GFP-NbT54A/V55A (C-term. 6xHis + EPEA) (VHH, biotinylated for BLI) VHH: QVQLVESGGGLVQAGGSLRLSCAASGRTFSTAAMGWFRQAPGKERDFVAGIYWAAGSTYYADSAKGRFTISRDNAKNTVYLQMDSLKPEDTAVYYCAARRRGFTLAPTRANEYDYWGQGTQVTVSS
–	–	–	–	–	binds	binds	binds	CA12760 GFP-Nb207 (including C-terminal 6xHis + EPEA tag) (VHH, biotinylated for BLI) VHH: QVQLVESGGGLVQAGGSLRLSCAASGRTFSTAAMGWFRQAPGKERDFVAGIYWTVGSTYYADSAKGRFTISRDNAKNTVYLQMDSLKPEDTAVYYCAARRRGFTLAPTRANEYDYWGQGTQVTVSS

Results are given in words; binding and its absence hold for the method and conditions named. A result given as binding can be weak or reduced; the word gives no strength. Tags and fused reporters may be left off the sequences shown. For some assays here: In cells and extracts the contact can be indirect.
